Drug screen on melanoma cell lines: apoptosis marker

Drugs:
pioglitazone (10 µM): CCc1ccc(CCOc2ccc(CC3SC(=O)NC3=O)cc2)nc1 (stereo not shown)
IMD-0354 (0.08 µM): O=C(Nc1cc(C(F)(F)F)cc(C(F)(F)F)c1)c1cc(Cl)ccc1O
gemcitabine (0.002 µM): Nc1ccn([C@@H]2O[C@H](CO)[C@@H](O)C2(F)F)c(=O)n1
YM155 (0.002 µM): COCC[n+]1c2c(n(Cc3cnccn3)c1C)C(=O)c1ccccc1C2=O
BMS-536924 (1 µM): Cc1cc(N2CCOCC2)cc2[nH]c(-c3c(NC[C@@H](O)c4cccc(Cl)c4)cc[nH]c3=O)nc12
ENMD-2076 (0.2 µM): Cc1cc(Nc2cc(N3CCN(C)CC3)nc(/C=C/c3ccccc3)n2)n[nH]1
vatalanib (10 µM): Clc1ccc(Nc2nnc(Cc3ccncc3)c3ccccc23)cc1
sorafenib (2 µM): CNC(=O)c1cc(Oc2ccc(NC(=O)Nc3ccc(Cl)c(C(F)(F)F)c3)cc2)ccn1
vincristine (0.0005 µM): CC[C@]1(O)C[C@H]2CN(CCc3c([nH]c4ccccc34)[C@@](C(=O)OC)(c3cc4c(cc3OC)N(C=O)[C@H]3[C@@](O)(C(=O)OC)[C@H](OC(C)=O)[C@]5(CC)C=CCN6CC[C@]43[C@@H]65)C2)C1
bexarotene (10 µM): C=C(c1ccc(C(=O)O)cc1)c1cc2c(cc1C)C(C)(C)CCC2(C)C
lestaurtinib (0.02 µM): C[C@]12O[C@H](C[C@]1(O)CO)n1c3ccccc3c3c4c(c5c6ccccc6n2c5c31)CNC4=O
FH535 (5 µM): Cc1cc([N+](=O)[O-])ccc1NS(=O)(=O)c1cc(Cl)ccc1Cl
OSU-03012 (5 µM): NCC(=O)Nc1ccc(-n2nc(C(F)(F)F)cc2-c2ccc3c(ccc4ccccc43)c2)cc1
bortezomib (0.005 µM): CC(C)C[C@H](NC(=O)[C@H](Cc1ccccc1)NC(=O)c1cnccn1)B(O)O
nutlin-3 (0.5 µM): COc1ccc(C2=N[C@@H](c3ccc(Cl)cc3)[C@@H](c3ccc(Cl)cc3)N2C(=O)N2CCNC(=O)C2)c(OC(C)C)c1
ABT-263 (2 µM): CC1(C)CCC(c2ccc(Cl)cc2)=C(CN2CCN(c3ccc(C(=O)NS(=O)(=O)c4ccc(N[C@H](CCN5CCOCC5)CSc5ccccc5)c(S(=O)(=O)C(F)(F)F)c4)cc3)CC2)C1
GSK650394 (0.8 µM): O=C(O)c1ccc(-c2c[nH]c3ncc(-c4ccccc4)cc23)cc1C1CCCC1
selumetinib (0.075 µM): Cn1cnc2c(F)c(Nc3ccc(Br)cc3Cl)c(C(=O)NOCCO)cc21
CX-4945 (2 µM): O=C(O)c1ccc2c(c1)nc(Nc1cccc(Cl)c1)c1ccncc12
KU-0063794 (0.1 µM): COc1ccc(-c2ccc3c(N4CCOCC4)nc(N4C[C@@H](C)O[C@@H](C)C4)nc3n2)cc1CO

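Human melanoma cell lines in 1,536-well plates were treated with a pair of drugs for 72 h, then fixed, stained and imaged. Values are the share of nuclei positive for cleaved PARP as a percentage of the same share in the DMSO control: 100 is the control level, higher means more apoptosis. Every drug was used at one fixed concentration, the higher of two screened. These are primary screening values without error estimates. The marker varies much from line to line, for technical or biological reasons.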
Only some of the drugs and lines screened are listed, without regard to their results.
An entry leaves out what has no value listed here.
A dash means that no value is listed here.

* GSK650394 + gemcitabine : WM3619: 141; SK-MEL-5: 83.7; MEL-HO: 140; RVH-421: 174
* lestaurtinib + IMD-0354 : WM3619: 128; A375: 54.4; SK-MEL-5: 193; MEL-HO: 144; RVH-421: 63.9
* ENMD-2076 + selumetinib : WM3619: 204; A375: 119; SK-MEL-5: 213; MEL-HO: 51.2; RVH-421: 76.3
* GSK650394 + YM155 : WM3619: 115; SK-MEL-5: 1750; MEL-HO: 89.9; RVH-421: 153
* KU-0063794 + GSK650394 : WM3619: 170; A375: 67.0; SK-MEL-5: 301; MEL-HO: 72.7; 501mel: 152; RVH-421: 238
* OSU-03012 + nutlin-3 : WM3619: 144; SK-MEL-5: 174; MEL-HO: 168; RVH-421: 32.9
* KU-0063794 + YM155 : WM3619: 188; A375: 134; SK-MEL-5: 403; MEL-HO: 27.8; 501mel: 132; RVH-421: 94.3
* pioglitazone + CX-4945 : WM3619: 141; A375: 429; SK-MEL-5: 125; MEL-HO: 71.1; 501mel: 166; RVH-421: 156
* gemcitabine + YM155 : WM3619: 379; A375: 59.9; SK-MEL-5: 505; MEL-HO: 184; RVH-421: 395
* nutlin-3 + selumetinib : WM3619: 181; A375: 172; SK-MEL-5: 339; MEL-HO: 214; RVH-421: 200
* bexarotene + IMD-0354 : WM3619: 112; A375: 65.7; SK-MEL-5: 141; MEL-HO: 50.5; RVH-421: 30.0
* ABT-263 + bexarotene : WM3619: 140; A375: 252; SK-MEL-5: 265; MEL-HO: 197; RVH-421: 135
* YM155 + FH535 : WM3619: 143; A375: 135; SK-MEL-5: 359; MEL-HO: 327; 501mel: 127; RVH-421: 174
* vatalanib + vincristine : WM3619: 382; A375: 197; SK-MEL-5: 969; MEL-HO: 294; RVH-421: 811
* BMS-536924 + nutlin-3 : WM3619: 107; SK-MEL-5: 151; MEL-HO: 69.8; RVH-421: 150
* bortezomib + YM155 : WM3619: 5130; A375: 110; SK-MEL-5: 3870; MEL-HO: 384; RVH-421: 680
* nutlin-3 + vincristine : WM3619: 141; A375: 71.4; SK-MEL-5: 49.8; MEL-HO: 185; RVH-421: 114
* sorafenib + lestaurtinib : WM3619: 101; A375: 33.4; SK-MEL-5: 211; MEL-HO: 92.4; RVH-421: 353
* pioglitazone + ABT-263 : WM3619: 161; A375: 421; SK-MEL-5: 180; MEL-HO: 121; 501mel: 134; RVH-421: 105
* lestaurtinib + ABT-263 : WM3619: 96.2; A375: 302; SK-MEL-5: 329; MEL-HO: 119; RVH-421: 258
* bortezomib + pioglitazone : WM3619: 1780; A375: 123; SK-MEL-5: 413; MEL-HO: 238; 501mel: 615; RVH-421: 869

3 of the entries, repeated:

Combination,WM3619,A375,SK-MEL-5,MEL-HO,501mel,RVH-421
sorafenib + lestaurtinib,101,33.4,211,92.4,-,353
lestaurtinib + ABT-263,96.2,302,329,119,-,258
lestaurtinib + IMD-0354,128,54.4,193,144,-,63.9

Data from the primary screen of doi:10.1371/journal.pone.0140310, rounded.